Paper PMC4804309
For at least one entry, the source does not settle the construct or the ends of the probe. For some of these results: A negative result means that nothing was seen under these conditions.

How the values were obtained:
GST-MaWRKY26 [1] = experiment: EMSA; settings: shift abolished by unlabeled self competitor; 25 mM HEPES-KOH pH 7.5, 100 mM KCl, 0.1 mM EDTA, 17% glycerol, 1 mM DTT, 50 ng protein, ~1 pmol probe, 20 uL, 25 min at 22 C; recombinant protein; protein details: N-terminal GST (pGEX-4T-1); label: 5' biotin
GST-MaWRKY26 [2] = experiment: competition with a labelled probe; settings: 25 mM HEPES-KOH pH 7.5, 100 mM KCl, 0.1 mM EDTA, 17% glycerol, 1 mM DTT, 50 ng protein, ~1 pmol probe, 20 uL, 25 min at 22 C, recombinant protein, protein details: N-terminal GST (pGEX-4T-1)
GST = experiment: EMSA; settings: GST alone, same outcome stated for N3 and N5; 25 mM HEPES-KOH pH 7.5, 100 mM KCl, 0.1 mM EDTA, 17% glycerol, 1 mM DTT, 50 ng protein, ~1 pmol probe, 20 uL, 25 min at 22 C; recombinant protein; label: 5' biotin

“TTTATTTTTTTGACCAATGGATTCGACTCCACGTGTCTATTTGACCGCTGTACACTTC (double strand) [MaAOS3 promoter probe]”: binds (GST-MaWRKY26 [1]).
“TTTATTTTTAAAAAAAATGGATTCGACTCCACGTGTCTATAAAAAAGCTGTACACTTC (double strand) [MaAOS3 mutant probe]”: no binding (GST-MaWRKY26 [2]; mutated probe did not abolish binding to N3 (legend: mutant probe incubated with protein)).
“GAGATCGCCATGTCCCTTTATTGGAGAAATTGACTTGGCAGATCGAACTCAACAATCA (double strand) [MaLOX2 promoter probe]”: no binding (GST); binds (GST-MaWRKY26 [1]).
“GGAGAGGAGAGGAGAGGGGGTTGAACTTTGACCACTTGAAAGCGTGGAACCTGCTTTG (double strand) [MaOPR3 promoter probe]”: binds (GST-MaWRKY26 [1]).
“GAGATCGCCATGTCCCTTTATTGGAGAAAAAAAAATGGCAGATCGAACTCAACAATCA (double strand) [MaLOX2 mutant probe]”: no binding (GST-MaWRKY26 [2]; mutated probe did not abolish binding to N1 (legend: mutant probe incubated with protein)).
“GGAGAGGAGAGGAGAGGGGGTTGAACAAAAAAAACTTGAAAGCGTGGAACCTGCTTTG (double strand) [MaOPR3 mutant probe]”: no binding (GST-MaWRKY26 [2]; mutated probe did not abolish binding to N5 (legend: mutant probe incubated with protein)).
